Data reported in the supplement of paper PMC10077471.
Over roughly 1,900 compounds, “excess over highest single agent (ExcessHSA) synergy score, 6x6 matrix” has its median near -83; the lowest 2% begin near -370. Some of the results follow.

system: NCI-H446; experiment: excess over highest single agent (ExcessHSA) synergy score, 6x6 matrix; higher = less synergy (more negative = stronger synergy); details: 72 h; CellTiter-Glo viability

Question: For `CC(C)(C)c1cc(C(=O)O)c(NC(=O)Nc2ccc3[nH]ncc3c2)s1` + Cc1sc2c(c1C)C(c1ccc(Cl)cc1)=N[C@@H](CC(=O)OC(C)(C)C)c1nnc(C)n1-2 [NCGC00250412-19], which “excess over highest single agent” value is on record?
Answer: 46.3

Question: How did the “excess over highest single agent” value turn out when `CC(C)n1cnc2c(NCCCCCCNC(=O)OC(C)(C)C)nc(NCCO)nc21` + Cc1sc2c(c1C)C(c1ccc(Cl)cc1)=N[C@@H](CC(=O)OC(C)(C)C)c1nnc(C)n1-2 [NCGC00250412-19] was run?
Answer: -65.3

Question: With `CCCCN1CCC(CNC(=O)c2c3n(c4ccccc24)CCCO3)CC1` + Cc1sc2c(c1C)C(c1ccc(Cl)cc1)=N[C@@H](CC(=O)OC(C)(C)C)c1nnc(C)n1-2 [NCGC00250412-19] as the compound, how does the “excess over highest single agent” value read?
Answer: -45

Question: With `COc1cc(NS(=O)(=O)c2ccc(N)cc2)nc(OC)n1` + Cc1sc2c(c1C)C(c1ccc(Cl)cc1)=N[C@@H](CC(=O)OC(C)(C)C)c1nnc(C)n1-2 [NCGC00250412-19] as the compound, how does the “excess over highest single agent” value read?
Answer: -57.6

Question: How did the “excess over highest single agent” value turn out when `Cc1cccc(Nc2ccncc2S(=O)(=O)NC(=O)NC(C)C)c1` + Cc1sc2c(c1C)C(c1ccc(Cl)cc1)=N[C@@H](CC(=O)OC(C)(C)C)c1nnc(C)n1-2 [NCGC00250412-19] was run?
Answer: -155

Question: For `O=C(c1ccc(F)cc1)N1CCC[C@H](c2nc(-c3ccc(F)cc3)no2)C1` + Cc1sc2c(c1C)C(c1ccc(Cl)cc1)=N[C@@H](CC(=O)OC(C)(C)C)c1nnc(C)n1-2 [NCGC00250412-19], which “excess over highest single agent” value is on record?
Answer: -46.8

Question: With `N#C[C@H](O[C@@H]1O[C@H](CO[C@@H]2O[C@H](CO)[C@@H](O)[C@H](O)[C@H]2O)[C@@H](O)[C@H](O)[C@H]1O)c1ccccc1` + Cc1sc2c(c1C)C(c1ccc(Cl)cc1)=N[C@@H](CC(=O)OC(C)(C)C)c1nnc(C)n1-2 [NCGC00250412-19] as the compound, how does the “excess over highest single agent” value read?
Answer: -35.5

Question: With `CNC(=O)c1ccc(N2C(=S)N(c3cnc(C#N)c(C(F)(F)F)c3)C(=O)C23CCC3)cc1F` + Cc1sc2c(c1C)C(c1ccc(Cl)cc1)=N[C@@H](CC(=O)OC(C)(C)C)c1nnc(C)n1-2 [NCGC00250412-19] as the compound, how does the “excess over highest single agent” value read?
Answer: -9.84

Question: For `O=C1c2ccccc2-c2n[nH]c3cccc1c23` + Cc1sc2c(c1C)C(c1ccc(Cl)cc1)=N[C@@H](CC(=O)OC(C)(C)C)c1nnc(C)n1-2 [NCGC00250412-19], which “excess over highest single agent” value is on record?
Answer: -138

Question: `O=C(c1ccc(OCCN2CCCCC2)cc1)c1c(-c2ccc(O)cc2)sc2cc(O)ccc12` + Cc1sc2c(c1C)C(c1ccc(Cl)cc1)=N[C@@H](CC(=O)OC(C)(C)C)c1nnc(C)n1-2 [NCGC00250412-19] was tested. Which “excess over highest single agent” value did it give?
Answer: -84.2

Question: Which “excess over highest single agent” value does the source give for `CO[C@@H]1[C@H](N(C)C(=O)c2ccccc2)C[C@H]2O[C@]1(C)n1c3ccccc3c3c4c(c5c6ccccc6n2c5c31)C(=O)NC4=O` + Cc1sc2c(c1C)C(c1ccc(Cl)cc1)=N[C@@H](CC(=O)OC(C)(C)C)c1nnc(C)n1-2 [NCGC00250412-19] here?
Answer: -113

Question: Which “excess over highest single agent” value does the source give for `COc1ccc(CC2SC(=O)NC2=O)cc1C(=O)NCc1ccc(C(F)(F)F)cc1` (configuration not stated) + Cc1sc2c(c1C)C(c1ccc(Cl)cc1)=N[C@@H](CC(=O)OC(C)(C)C)c1nnc(C)n1-2 [NCGC00250412-19] here?
Answer: 97.6

Question: For `CCOc1cc(N2CCC(O)CC2)ccc1Nc1ncc2c(n1)N(C)c1ccccc1C(=O)N2C` + Cc1sc2c(c1C)C(c1ccc(Cl)cc1)=N[C@@H](CC(=O)OC(C)(C)C)c1nnc(C)n1-2 [NCGC00250412-19], which “excess over highest single agent” value is on record?
Answer: 136

Question: `Cc1ccc(NC(=O)Nc2cc(C(F)(F)F)ccc2F)cc1Nc1ccc2c(c1)NC(=O)/C2=C\c1ccc[nH]1` + Cc1sc2c(c1C)C(c1ccc(Cl)cc1)=N[C@@H](CC(=O)OC(C)(C)C)c1nnc(C)n1-2 [NCGC00250412-19] was tested. Which “excess over highest single agent” value did it give?
Answer: -97.6

Question: With `CNC(=O)c1ccccc1Sc1ccc2c(/C=C/c3ccccn3)n[nH]c2c1` + Cc1sc2c(c1C)C(c1ccc(Cl)cc1)=N[C@@H](CC(=O)OC(C)(C)C)c1nnc(C)n1-2 [NCGC00250412-19] as the compound, how does the “excess over highest single agent” value read?
Answer: -194

Question: `C[C@]12CC[C@H](O)CC1=CC[C@@H]1[C@@H]2CC[C@]2(C)C(=O)CC[C@@H]12` + Cc1sc2c(c1C)C(c1ccc(Cl)cc1)=N[C@@H](CC(=O)OC(C)(C)C)c1nnc(C)n1-2 [NCGC00250412-19] was tested. Which “excess over highest single agent” value did it give?
Answer: -70.9

Question: `CCn1cc(C(=O)O)c(=O)c2cc(F)c(N3CCNCC3)cc21` + Cc1sc2c(c1C)C(c1ccc(Cl)cc1)=N[C@@H](CC(=O)OC(C)(C)C)c1nnc(C)n1-2 [NCGC00250412-19] was tested. Which “excess over highest single agent” value did it give?
Answer: -156

Question: How did the “excess over highest single agent” value turn out when `COc1ccc(C(C)=O)c(O)c1` + Cc1sc2c(c1C)C(c1ccc(Cl)cc1)=N[C@@H](CC(=O)OC(C)(C)C)c1nnc(C)n1-2 [NCGC00250412-19] was run?
Answer: -66.4

Question: How did the “excess over highest single agent” value turn out when `COc1ccc(-n2nc(C(N)=O)c3c2C(=O)N(c2ccc(N4CCCCC4=O)cc2)CC3)cc1` + Cc1sc2c(c1C)C(c1ccc(Cl)cc1)=N[C@@H](CC(=O)OC(C)(C)C)c1nnc(C)n1-2 [NCGC00250412-19] was run?
Answer: 97.6

Question: How did the “excess over highest single agent” value turn out when `COc1c(O)cc2c(c1O)[C@@H]1O[C@H](CO)[C@@H](O)[C@H](O)[C@H]1OC2=O` + Cc1sc2c(c1C)C(c1ccc(Cl)cc1)=N[C@@H](CC(=O)OC(C)(C)C)c1nnc(C)n1-2 [NCGC00250412-19] was run?
Answer: -61.3

Question: How did the “excess over highest single agent” value turn out when `Nc1cccc(-c2cc3c(Oc4cccc(O)c4)ncnc3[nH]2)c1` + Cc1sc2c(c1C)C(c1ccc(Cl)cc1)=N[C@@H](CC(=O)OC(C)(C)C)c1nnc(C)n1-2 [NCGC00250412-19] was run?
Answer: 30.5

Question: How did the “excess over highest single agent” value turn out when `CC1C=CC=CCCC=CC=CC=CC=CC(OC2OC(C)C(O)C(N)C2O)CC2OC(O)(CC(O)C(O)CCC(O)CC(O)CC(O)CC(=O)OC(C)C(C)C1O)CC(O)C2C(=O)O` (configuration not stated) + Cc1sc2c(c1C)C(c1ccc(Cl)cc1)=N[C@@H](CC(=O)OC(C)(C)C)c1nnc(C)n1-2 [NCGC00250412-19] was run?
Answer: 20.1

Question: Which “excess over highest single agent” value does the source give for `COc1ccccc1OCCNCC(O)COc1cccc2[nH]c3ccccc3c12` (configuration not stated) + Cc1sc2c(c1C)C(c1ccc(Cl)cc1)=N[C@@H](CC(=O)OC(C)(C)C)c1nnc(C)n1-2 [NCGC00250412-19] here?
Answer: -202

Question: With `CCC(CC)[C@H](NC(C)=O)[C@@H]1[C@H](O)[C@@H](C(=O)O)C[C@H]1NC(=N)N` + Cc1sc2c(c1C)C(c1ccc(Cl)cc1)=N[C@@H](CC(=O)OC(C)(C)C)c1nnc(C)n1-2 [NCGC00250412-19] as the compound, how does the “excess over highest single agent” value read?
Answer: -71.5

Question: For `CC(C)c1nc(CN(C)C(=O)N[C@H](C(=O)N[C@@H](Cc2ccccc2)C[C@H](O)[C@H](Cc2ccccc2)NC(=O)OCc2cncs2)C(C)C)cs1` + Cc1sc2c(c1C)C(c1ccc(Cl)cc1)=N[C@@H](CC(=O)OC(C)(C)C)c1nnc(C)n1-2 [NCGC00250412-19], which “excess over highest single agent” value is on record?
Answer: -283

Question: For `COc1ccc2c(c1OC)CN1CCc3cc4c(cc3C1C2)OCO4` (configuration not stated) + Cc1sc2c(c1C)C(c1ccc(Cl)cc1)=N[C@@H](CC(=O)OC(C)(C)C)c1nnc(C)n1-2 [NCGC00250412-19], which “excess over highest single agent” value is on record?
Answer: -109

Question: For `O=C(NCC1CCCCN1)c1cc(OCC(F)(F)F)ccc1OCC(F)(F)F` (configuration not stated) + Cc1sc2c(c1C)C(c1ccc(Cl)cc1)=N[C@@H](CC(=O)OC(C)(C)C)c1nnc(C)n1-2 [NCGC00250412-19], which “excess over highest single agent” value is on record?
Answer: 23.3

Question: `COc1cc(N2CCC(N3CCN(C)CC3)CC2)ccc1Nc1ncc(Cl)c(Nc2ccccc2S(=O)(=O)C(C)C)n1` + Cc1sc2c(c1C)C(c1ccc(Cl)cc1)=N[C@@H](CC(=O)OC(C)(C)C)c1nnc(C)n1-2 [NCGC00250412-19] was tested. Which “excess over highest single agent” value did it give?
Answer: -237

Question: Which “excess over highest single agent” value does the source give for `C=CCON=C(C[C@H]1O[C@@H]2O[C@]3(C)CC[C@@H]4[C@H](C)CC[C@@H]([C@H]1C)[C@@]24OO3)[C@H]1O[C@@H]2O[C@]3(C)CC[C@H]4[C@H](C)CC[C@@H]([C@@H]1C)[C@@]24OO3` + Cc1sc2c(c1C)C(c1ccc(Cl)cc1)=N[C@@H](CC(=O)OC(C)(C)C)c1nnc(C)n1-2 [NCGC00250412-19] here?
Answer: -427

Question: With `C[C@@H](O)[C@H]1C(=O)N2C(C(=O)OCOC(=O)C(C)(C)C)=C(SC3CN(C4=NCCS4)C3)[C@H](C)[C@H]12` + Cc1sc2c(c1C)C(c1ccc(Cl)cc1)=N[C@@H](CC(=O)OC(C)(C)C)c1nnc(C)n1-2 [NCGC00250412-19] as the compound, how does the “excess over highest single agent” value read?
Answer: -195

Question: Which “excess over highest single agent” value does the source give for `O=C(Nc1cc(Cl)cc2c1[nH]c1cnccc12)c1cccnc1` + Cc1sc2c(c1C)C(c1ccc(Cl)cc1)=N[C@@H](CC(=O)OC(C)(C)C)c1nnc(C)n1-2 [NCGC00250412-19] here?
Answer: -175

Question: `CC(C)(C)NC(=O)Nc1cccc(Nc2ncc(F)c(NC(C)(C)CO)n2)c1` + Cc1sc2c(c1C)C(c1ccc(Cl)cc1)=N[C@@H](CC(=O)OC(C)(C)C)c1nnc(C)n1-2 [NCGC00250412-19] was tested. Which “excess over highest single agent” value did it give?
Answer: -210

Question: With `S=P(N1CC1)(N1CC1)N1CC1` + Cc1sc2c(c1C)C(c1ccc(Cl)cc1)=N[C@@H](CC(=O)OC(C)(C)C)c1nnc(C)n1-2 [NCGC00250412-19] as the compound, how does the “excess over highest single agent” value read?
Answer: -19.4

Question: `CCCS(=O)(=O)Nc1ccc(F)c(C(=O)c2c[nH]c3ncc(Cl)cc23)c1F` + Cc1sc2c(c1C)C(c1ccc(Cl)cc1)=N[C@@H](CC(=O)OC(C)(C)C)c1nnc(C)n1-2 [NCGC00250412-19] was tested. Which “excess over highest single agent” value did it give?
Answer: -97.1

Question: How did the “excess over highest single agent” value turn out when `CCN1CCCC1CNC(=O)c1cc(S(=O)(=O)CC)c(N)cc1OC` (configuration not stated) + Cc1sc2c(c1C)C(c1ccc(Cl)cc1)=N[C@@H](CC(=O)OC(C)(C)C)c1nnc(C)n1-2 [NCGC00250412-19] was run?
Answer: -64.6

Question: How did the “excess over highest single agent” value turn out when `Nc1nc(N)nc(-c2cc(Cl)ccc2Cl)n1` + Cc1sc2c(c1C)C(c1ccc(Cl)cc1)=N[C@@H](CC(=O)OC(C)(C)C)c1nnc(C)n1-2 [NCGC00250412-19] was run?
Answer: -70.3

Question: `CNC(=O)CN1CCC(Oc2cc3c(Nc4cccc(Cl)c4F)ncnc3cc2OC)CC1` + Cc1sc2c(c1C)C(c1ccc(Cl)cc1)=N[C@@H](CC(=O)OC(C)(C)C)c1nnc(C)n1-2 [NCGC00250412-19] was tested. Which “excess over highest single agent” value did it give?
Answer: 36.5
